From the supplement of paper PMC5949888
Most values lie at the floor of the assay. Slopes are relative: functional sequences can read slightly below zero.

test system: Saccharomyces cerevisiae PS128 hsf1 delta, HSF1(1-493) fusion; assay: growth estimate (transactivation domain function in HSF1 fusion, heat-shock survival) (a.u. (slope of normalised read count over time)); higher = stronger growth at 37°C, i.e. more transactivation activity; conditions: library: random library
Experimental: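 Random 60-nt DNA library encoding peptides of up to 20 aa, fused to the C-terminus of yeast HSF1 residues 1-493 (C-terminal TAD deleted) and expressed from the native HSF1 promoter on a CEN plasmid in hsf1-deleted S. cerevisiae PS128. Cells were selected at 37°C on -trp 5-FOA plates for 0, 2, 4, 6 and 8 days and amplicons were sequenced. Growth estimate is the slope of a robust linear fit of total-sum-normalised read counts (normalised to the first time point) over time, using at least 2 replicates. Sequences are classed functional (TAD activity) above a threshold of -0.13, set from stop-codon control sequences.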

| Substance | growth estimate |
| --- | --- |
| AYSWMFLYFISCAKELVRRG | -0.225 |
| AYTMNPGSHLRGRGPIRVLF | < -0.25 |
| AYV | < -0.25 |
| AYVKRNFLKLRVLGRGVEGS | < -0.25 |
| AYVRDTSGEGTHGNILEQR | < -0.25 |
| CAATSTMNPKFGLRQPDSRS | < -0.25 |
| CACWSGLDCVPLVCAGVHIF | < -0.25 |
| CADCIAPLQKEHS | < -0.25 |
| CAEVWFTEVTRETKLKHTQA | < -0.25 |
| CAFGAEVGRHPL | -0.0503 |
| CAFTELLNSKREGI | < -0.25 |
| CAGGV | < -0.25 |
| CAPQPTKSTMAMRLSQTKVD | < -0.25 |
| CARRGLHVAFL | < -0.25 |
| CASG | < -0.25 |
| CASLERHLRFQSNPQTRRPS | -0.241 |
| CATPPNGYARGTGHTIVHLS | < -0.25 |
| CATSAGGRSRSIQKIVGQGL | < -0.25 |
| CAVEQMVEEEKKDGRKCGEF | < -0.25 |
| CAVGQ | < -0.25 |
| CAVVIPMDLSIEAKAHVLTS | < -0.25 |
| CCGNPLRVSTRPLELRA | < -0.25 |
| CCGRFHGFINHRRPEDR | < -0.25 |
| CCLAVCGTAIRLVSLSSDMP | < -0.25 |

| Substance | growth estimate |
| --- | --- |
| CCLGLNFRQWNVGCFQDIFV | < -0.25 |
| CCPWLRGRTFRRYKVGASGV | < -0.25 |
| CCRDKDPVFAGAGEAPLQVS | < -0.25 |
| CCSRHLGVSEQGRVLGPVPR | < -0.25 |
| CCWEKYSNRVPYSER | < -0.25 |
| CDAPPVLWGTI | < -0.25 |
| CDCRVSKPDSVWHSLTE | < -0.25 |
| CDGLPFPTYRYYGFAHYRQS | < -0.25 |
| CDH | < -0.25 |
| CDISIRTWPGEIQ | < -0.25 |
| CDKVQCGFSASEALVESVSN | < -0.25 |
| CDPVSNRALTVVGLPVISNR | < -0.25 |
| CDQTSLPPGRRRNIAWAPDT | < -0.25 |
| CDRTMSKRCGDE | < -0.25 |
| CDRVTRRG | < -0.25 |
| CDTSATQGGRLRLWGTVWAP | < -0.25 |
| CECIGPTGLPPLCPGILTFA | < -0.25 |
| CEDIAKGRPREHEGPFYMRN | < -0.25 |
| CEGLV | < -0.25 |
| CEGNISFCLSLD | < -0.25 |
| CEGPRKYASLSEGGKCYWEQ | < -0.25 |
| CEI | < -0.25 |
| CELHSVFALYRSFSQFYEHA | < -0.25 |
| CELSVDRRSGPRGV | < -0.25 |

| Substance | growth estimate |
| --- | --- |
| CEPGSGRGLNMRTRPSRL | < -0.25 |
| CERRCCAAAATAAPLLEDFN | < -0.25 |
| CESALNMRSLSPSRAMGEGL | < -0.25 |
| CETCNRPVHIRWMG | < -0.25 |
| CETLLIGYSVIFTVGEPSHA | < -0.25 |
| CEVTQFRCASGSHSVRQAFS | < -0.25 |
| CEVVRSAGRYQVSVM | < -0.25 |
| CFA | < -0.25 |
| CFEIGTKSVRVGV | < -0.25 |
| CFGLGRL | < -0.25 |
| CFKCTLAE | < -0.25 |
| CFLGRRPRHYVRRIASTSLN | < -0.25 |
| CFLMLRTACNNRNASSS | < -0.25 |
| CFSNGNLAP | < -0.25 |
| CFSYQQRRFNGMRKPN | < -0.25 |
| CFVISVKKYRALFAYVTLLA | < -0.25 |
| CFVRGDTLLNAHVHIIFPRS | < -0.25 |
| CGASGKTWNSMLRVCNPPLA | < -0.25 |
| CGATKTCPCFKAR | < -0.25 |
| CGCR | < -0.25 |
| CGCSYLRG | < -0.25 |
| CGDIA | < -0.25 |
| CGEHKQLE | < -0.25 |
| CGERSGASQMR | < -0.25 |

| Substance | growth estimate |
| --- | --- |
| CGFLACLRTFK | < -0.25 |
| CGGMRRKRALCIFGF | < -0.25 |
| CGHNSHAYPRLGWRVHKTRS | < -0.25 |
| CGHRV | < -0.25 |
| CGHVGLIIPRKR | < -0.25 |
| CGITSEPILASYDVMGTPTI | < -0.25 |
| CGIVESGFCRSRKCTLLSCC | < -0.25 |
| CGKGEASGLILTFRADKRTP | < -0.25 |
| CGLALPAPKIG | < -0.25 |
| CGLAS | < -0.25 |
| CGMMFACLIRPSSCIC | < -0.25 |
| CGNSGSFTAGS | < -0.25 |
| CGPA | < -0.25 |
| CGPEI | < -0.25 |
| CGPQEVV | < -0.25 |
| CGREIRDSAVSQRIHVLCEP | -0.245 |
| CGRI | < -0.25 |
| CGRK | < -0.25 |
| CGSGDM | < -0.25 |
| CGSQFLLLRKVWGICIRLLA | < -0.25 |
| CGSVRCRDAGRVGTHRVWGR | < -0.25 |
| CGTATQPVN | < -0.25 |
| CGTIKASGTVRASYGIPSVR | < -0.25 |
| CGTLSDC | 0.127 |

| Substance | growth estimate |
| --- | --- |
| CGVDKALLKRPVELTRQGGI | < -0.25 |
| CGYQ | < -0.25 |
| CHARLSWYPAAFRSEDRAC | < -0.25 |
| CHDQSRSDGGIGFKMRRRIA | < -0.25 |
| CHLMSTEWCPRPSAQLTCKD | < -0.25 |
| CHLSFRVMYQRIFVPSRRCF | < -0.25 |
| CHMEILS | < -0.25 |
| CHMSMFPDASNFILSY | < -0.25 |
| CHN | < -0.25 |
| CHPLR | < -0.25 |
| CHREFAERHGRVRASVRNIA | < -0.25 |
| CHS | -0.2 |
| CHVLKKNRGLHRQGLERICD | < -0.25 |
| CHVVFTSAFLRKRRLYSRTG | < -0.25 |
| CICIASSRTRPGLSTRGNSG | < -0.25 |
| CIEAYQSVGYVGRILQVRTN | < -0.25 |
| CIEE | < -0.25 |
| CIFVGRWSITTNSWDTYDQA | < -0.25 |
| CIISFGTG | < -0.25 |
| CILWERHPCCLAQYSTRVAK | < -0.25 |
| CINRMLSRRVNFPSL | < -0.25 |
| CIRCMKGRISVQLAGMPVPV | < -0.25 |
| CISGLVAEQDRTMIRRWITR | < -0.25 |
| CISIAPRG | < -0.25 |

Pulled one by one from the entries so far:

| Substance | growth estimate |
| --- | --- |
| CIRCMKGRISVQLAGMPVPV | < -0.25 |
| CIISFGTG | < -0.25 |

Next results follow.

| Substance | growth estimate |
| --- | --- |
| CISPDMSIAYWEGWWSL | 0.794 |
| CISRMLMVQGVMQRRPSLLH | < -0.25 |
| CIVTHKSGGIGRDLVYGYRS | < -0.25 |
| CIYDGQF | -0.246 |
| CKFCYENSGEPE | < -0.25 |
| CKGLQSRVCYFGDCAVCMDP | < -0.25 |
| CKIAAWWIRE | < -0.25 |
| CKKSKIDIRSICI | < -0.25 |
| CKKTWFYRASVSSLKPLARS | < -0.25 |
| CKLFHACQLLVKNGSGPAPN | < -0.25 |
| CKLLELPGTYM | < -0.25 |
| CKLPL | < -0.25 |
| CKNCIHTSRASALW | < -0.25 |
| CKNRRACTREAVHDNYDRRA | < -0.25 |
| CKPIVGCLRRSMFKQVSRPT | < -0.25 |
| CKRGA | < -0.25 |
| CKRSFD | < -0.25 |
| CKRSRVDLGHQPHDWMRCGI | < -0.25 |
| CKSGKLGRTARTLTSHTDCQ | < -0.25 |
| CKTATACVSEWSTTGFNPGM | < -0.25 |
| CKVEWDTGTLYRSPIHW | < -0.25 |
| CKVLGSLYGYVLET | < -0.25 |
| CKVNDSSANSSLIAISVVVE | < -0.25 |
| CKVVVAELVVSVGLYNLGQR | < -0.25 |

| Substance | growth estimate |
| --- | --- |
| CLAVSLSGYSHELGSLLVLP | < -0.25 |
| CLCLMCACLGGPRIEKKDIM | < -0.25 |
| CLCVVT | < -0.25 |
| CLDSDRPAQD | < -0.25 |
| CLEDI | < -0.25 |
| CLEFAG | < -0.25 |
| CLEHCTRKIKEYHGWPKVPK | < -0.25 |
| CLESLRVVPV | -0.248 |
| CLGERAIGVSWLLGKFNRRL | < -0.25 |
| CLGMLYNQA | < -0.25 |
| CLGQRHDPCMDCVLPRCSRP | < -0.25 |
| CLGSGANGQISFTARLRVGP | < -0.25 |
| CLHSS | < -0.25 |
| CLIGAVCLPEEHRSVGTL | < -0.25 |
| CLIT | < -0.25 |
| CLLHI | < -0.25 |
| CLLLIVSY | < -0.25 |
| CLLRNKLIKLG | < -0.25 |
| CLLSESGTWDARPLKVHGSL | < -0.25 |
| CLLVLTELKRTT | < -0.25 |
| CLPF | < -0.25 |
| CLPRVEEVR | < -0.25 |
| CLQRDGGNLICMLVQGDLCV | < -0.25 |
| CLRFFC | < -0.25 |

| Substance | growth estimate |
| --- | --- |
| CLRVSESELERVEVRDFGLE | < -0.25 |
| CLSFRMMSSIIYGGSHAHSH | < -0.25 |
| CLSGPVVLRRCIVYRFI | < -0.25 |
| CLWHITNFEQYNIFGLRLTR | < -0.25 |
| CLYGREKYLL | < -0.25 |
| CMAEPPRLID | < -0.25 |
| CMGHCFIIALGFVPRSGRSD | < -0.25 |
| CMGKLRIQWLGSRGPAGLRL | < -0.25 |
| CMKRLSDRGISWCYNAAIIP | < -0.25 |
| CNATGCSN | < -0.25 |
| CNGRVTNH | < -0.25 |
| CNIRSNRHC | < -0.25 |
| CNLVFVIINAAQSDAGTQFV | < -0.25 |
| CNLVLSTGPNRLSPC | < -0.25 |
| CNP | < -0.25 |
| CNRGTPADSFRAYMPMVLCA | < -0.25 |
| CNRIWLERVTKYVCS | < -0.25 |
| CNRKRSVTGTFNREPMDYSR | < -0.25 |
| CNRLTLAFQSDRIGPSEKGR | < -0.25 |
| CNRNREGQSKARPPRPRLSH | < -0.25 |
| CNTSTDDSCK | < -0.25 |
| CNV | < -0.25 |
| CNVSYQPRG | < -0.25 |
| CNWQDGVLGFNYSRQNYTHV | < -0.25 |

Look-ups from the results shown:
For growth estimate, CLDSDRPAQD reads < -0.25
For growth estimate, CLPRVEEVR reads < -0.25
For growth estimate, CDRTMSKRCGDE reads < -0.25
